# Record: PubChem BioAssay AID1259254 (NCATS, 2017)
# Assay: 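Genome-wide screen for genes that prevent DNA re-replication in cancer cells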 (primary screen)
# System: human HCT116 colorectal cancer cells
# Knock-down reagent: single siRNA against human genes
# Timing: 3 days
# Read-out: 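Nuclei stained with Hoechst and imaged; cell-cycle phase assigned by DNA content; G2 share scaled per plate, non-targeting siRNA 0%, GMNN siRNA 100%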
# Reading the numbers: G2 robust z-score and G2 cells, % of GMNN control: higher = more G2 cells, more excess DNA replication; raw share of cells in G2: higher = larger share of cells with G2 DNA content
# Call rule: 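Active siRNAs have a G2 robust z of 5 or more median absolute deviations over the median, which in these data means about 38% or higher of GMNN control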
# In all, the deposit lists about 59,000 reagents; this is a part drawn at random. About 1,550 of all reagents (2.6%) were called active. 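G2 share is only a proxy for re-replication; each gene was hit by three separate siRNAs, and active genes were retested.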 Raw values are not corrected between plates. Entries without a mark were called inactive. The numbers tell different reagents against one gene apart. No sequences are given here. Not given: the amount of reagent.
gene knocked down,reagent,G2 robust z-score,"G2 cells, % of GMNN control",raw share of cells in G2 (%)
VPS37A,1,-0.624,-1.42,3.64
VPS37A,2,1.16,11.2,6.64
VPS37A,3,-0.57,-1.04,2.2
MED20,1,-0.24,1.28,5.27
MED20,2,3.38,26.8,15.3
MED20,3,-0.758,-2.37,2.39
BCL2L1,1,0.218,4.5,6.25
BCL2L1,2,1.4,12.8,9.64
BCL2L1,3,-0.19,1.63,4.6
RPL24,1,1.61,14.3,11.1
RPL24,2,1.52,13.7,9.62
RPL24,3,2.01,17.1,9.53
MOBP,1,1.88,16.2,11.9
MOBP,2,-0.223,1.4,4.77
MOBP,3,-0.576,-1.09,2.96
INTS11,1,-1.1,-4.79,4.33
INTS11,2,1.54,13.8,9.39
INTS11,3,-0.64,-1.53,3.69
PACRG,1,0.326,5.26,6.16
PACRG,2,0.098,3.66,4.26
PACRG,3,-0.814,-2.76,1.58
SNX22,1,-0.436,-0.0998,4.4
SNX22,2,4.5,34.6,19.4
SNX22,3,0.576,7.02,4.3
F12,1,-0.635,-1.5,5.04
F12,2,2,17.1,10.9
F12,3,2.2,18.4,10.8
MAP7,1,0.0313,3.19,5.99
MAP7,2,-1.21,-5.53,3.32
MAP7,3,-0.164,1.81,5.36
UBTFL7,1,-0.754,-2.34,2.76
UBTFL7,2,1.27,11.9,6.96
UBTFL7,3,1.09,10.6,6.12
CENPH,1,0.763,8.34,8.21
CENPH,2,0.29,5.01,6.85
CENPH,3,0.332,5.3,4.1
MINDY1,1,1.93,16.6,10.9
MINDY1,2,1.9,16.3,10.9
MINDY1,3,-0.569,-1.04,2.81
REEP2,1,-0.434,-0.089,3.57
REEP2,2,-0.658,-1.66,3.57
REEP2,3,-0.721,-2.1,2.5
WDR47,1,-1.58,-8.15,1.79
WDR47,2,0.305,5.12,6.25
WDR47,3,-0.12,2.12,3.97
LINC00471,1,-0.385,0.262,3.92
LINC00471,2,-0.425,-0.026,2.9
LINC00471,3,-0.16,1.84,3.71
GNG12,1,-0.474,-0.364,4.18
GNG12,2,-0.365,0.399,6.6
GNG12,3,-0.287,0.947,4.78
GS1-24F4.2,1,-0.705,-1.99,2.68
GS1-24F4.2,2,-0.602,-1.27,3.03
GS1-24F4.2,3,-0.413,0.0642,3.7
VCF1,1,4.12,32,17.6
VCF1,2,0.764,8.34,5.62
VCF1,3,0.484,6.37,4.95
CXCR4,1,0.254,4.76,7.54
CXCR4,2,0.706,7.94,7.29
CXCR4,3,-0.625,-1.43,2.83
RGS7,1,0.688,7.81,6.74
RGS7,2,0.97,9.79,8.35
RGS7,3,-0.584,-1.14,4.24
NOD2,1,1.87,16.2,12.3
NOD2,2,-0.142,1.97,4.94
NOD2,3,-0.499,-0.541,4.16
CUTA,1,1.53,13.7,8.52
CUTA,2,0.481,6.35,6.94
CUTA,3,-0.833,-2.89,2.24
PLXNA3,1,1.62,14.4,10.4
PLXNA3,2,0.459,6.2,7.52
PLXNA3,3,0.202,4.39,5.09
VPS16,1,1.95,16.7,12.5
VPS16,2,2.14,18,10.7
VPS16,3,-0.431,-0.0625,4.2
KRTAP5-10,1,2.56,21,12.2
KRTAP5-10,2,1.86,16.1,8.85
KRTAP5-10,3,1.18,11.3,7.59
LINC01433,1,-0.346,0.53,3.74
LINC01433,2,-1.08,-4.64,1.24
LINC01433,3,2.36,19.5,11
OBSL1,1,-0.11,2.19,5.24
OBSL1,2,-0.608,-1.31,3.37
OBSL1,3,-0.746,-2.28,2.5
EID2,1,2.89,23.3,17.1
EID2,2,-0.354,0.479,4.88
EID2,3,0.0921,3.62,6.22
